In paper PMC7461561:
These are yes or no findings as the source states them, for the method shown. In cells and extracts the contact can be indirect. Some results given as binding are weak or reduced against the parent protein; the word gives no strength.

Sequences of proteins named here, by UniProt entry; tags and fusion partners are left off. Residues count along the entry.
UniProt O60260: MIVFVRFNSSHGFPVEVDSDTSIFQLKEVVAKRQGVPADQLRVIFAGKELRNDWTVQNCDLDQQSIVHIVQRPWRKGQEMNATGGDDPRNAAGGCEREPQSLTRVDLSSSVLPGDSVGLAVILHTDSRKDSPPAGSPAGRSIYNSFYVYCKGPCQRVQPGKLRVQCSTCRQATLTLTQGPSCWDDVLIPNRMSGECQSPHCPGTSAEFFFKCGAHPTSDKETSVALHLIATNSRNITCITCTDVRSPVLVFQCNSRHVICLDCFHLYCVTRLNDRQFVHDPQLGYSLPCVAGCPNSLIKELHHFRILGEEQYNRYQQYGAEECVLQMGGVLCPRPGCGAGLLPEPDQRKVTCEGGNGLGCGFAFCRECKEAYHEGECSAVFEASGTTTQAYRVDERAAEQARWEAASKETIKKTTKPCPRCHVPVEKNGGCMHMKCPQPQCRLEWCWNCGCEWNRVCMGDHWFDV
UniProt Q86UX7: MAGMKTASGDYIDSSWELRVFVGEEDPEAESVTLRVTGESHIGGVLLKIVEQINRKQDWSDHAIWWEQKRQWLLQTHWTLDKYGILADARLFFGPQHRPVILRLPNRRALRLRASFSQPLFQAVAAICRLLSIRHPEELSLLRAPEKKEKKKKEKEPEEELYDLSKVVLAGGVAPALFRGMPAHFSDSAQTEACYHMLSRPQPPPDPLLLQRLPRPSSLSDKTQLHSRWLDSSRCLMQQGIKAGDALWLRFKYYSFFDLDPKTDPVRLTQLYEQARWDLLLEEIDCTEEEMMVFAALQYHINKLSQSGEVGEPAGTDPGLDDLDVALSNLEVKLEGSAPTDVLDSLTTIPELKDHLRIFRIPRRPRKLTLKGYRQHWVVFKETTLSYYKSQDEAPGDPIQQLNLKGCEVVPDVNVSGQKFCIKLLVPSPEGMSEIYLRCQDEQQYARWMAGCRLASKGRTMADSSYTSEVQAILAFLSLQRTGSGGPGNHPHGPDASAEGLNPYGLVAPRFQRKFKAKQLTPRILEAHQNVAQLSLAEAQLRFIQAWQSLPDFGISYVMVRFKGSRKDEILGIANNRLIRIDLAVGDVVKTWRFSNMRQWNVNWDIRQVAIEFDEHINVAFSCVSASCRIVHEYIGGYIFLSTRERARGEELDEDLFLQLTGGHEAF
UniProt P07237, residues 18-508: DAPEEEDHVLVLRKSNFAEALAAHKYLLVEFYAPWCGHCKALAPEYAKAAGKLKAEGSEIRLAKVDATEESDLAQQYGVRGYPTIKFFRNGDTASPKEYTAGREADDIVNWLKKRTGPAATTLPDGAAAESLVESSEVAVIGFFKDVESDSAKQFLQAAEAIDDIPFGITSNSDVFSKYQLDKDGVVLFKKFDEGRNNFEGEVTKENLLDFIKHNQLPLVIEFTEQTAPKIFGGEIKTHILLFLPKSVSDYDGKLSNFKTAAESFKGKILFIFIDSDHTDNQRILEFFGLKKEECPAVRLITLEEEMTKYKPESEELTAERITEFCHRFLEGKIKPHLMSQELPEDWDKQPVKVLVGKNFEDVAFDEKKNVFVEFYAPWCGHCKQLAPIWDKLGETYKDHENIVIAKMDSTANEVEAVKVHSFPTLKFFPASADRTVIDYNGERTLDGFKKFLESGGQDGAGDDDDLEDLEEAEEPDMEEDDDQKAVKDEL
UniProt P40939, residues 37-763: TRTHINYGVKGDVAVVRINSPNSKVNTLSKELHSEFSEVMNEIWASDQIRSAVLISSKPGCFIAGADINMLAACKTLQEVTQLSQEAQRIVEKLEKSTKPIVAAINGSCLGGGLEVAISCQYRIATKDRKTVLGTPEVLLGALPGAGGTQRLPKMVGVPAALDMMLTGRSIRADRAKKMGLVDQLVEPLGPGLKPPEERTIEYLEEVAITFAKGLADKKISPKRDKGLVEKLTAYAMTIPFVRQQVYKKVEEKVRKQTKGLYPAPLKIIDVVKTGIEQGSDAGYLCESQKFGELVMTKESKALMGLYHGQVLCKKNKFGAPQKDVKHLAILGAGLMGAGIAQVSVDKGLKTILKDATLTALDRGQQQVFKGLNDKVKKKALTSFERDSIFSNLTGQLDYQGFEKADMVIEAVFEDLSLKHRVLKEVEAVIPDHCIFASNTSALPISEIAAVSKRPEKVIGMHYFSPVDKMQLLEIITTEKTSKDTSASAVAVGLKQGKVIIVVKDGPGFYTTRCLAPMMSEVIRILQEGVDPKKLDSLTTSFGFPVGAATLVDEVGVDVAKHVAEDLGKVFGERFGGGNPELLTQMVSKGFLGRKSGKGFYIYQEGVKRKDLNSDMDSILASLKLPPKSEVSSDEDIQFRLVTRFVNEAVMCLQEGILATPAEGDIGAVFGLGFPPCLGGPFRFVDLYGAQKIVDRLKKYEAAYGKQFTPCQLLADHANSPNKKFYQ
UniProt Q13418: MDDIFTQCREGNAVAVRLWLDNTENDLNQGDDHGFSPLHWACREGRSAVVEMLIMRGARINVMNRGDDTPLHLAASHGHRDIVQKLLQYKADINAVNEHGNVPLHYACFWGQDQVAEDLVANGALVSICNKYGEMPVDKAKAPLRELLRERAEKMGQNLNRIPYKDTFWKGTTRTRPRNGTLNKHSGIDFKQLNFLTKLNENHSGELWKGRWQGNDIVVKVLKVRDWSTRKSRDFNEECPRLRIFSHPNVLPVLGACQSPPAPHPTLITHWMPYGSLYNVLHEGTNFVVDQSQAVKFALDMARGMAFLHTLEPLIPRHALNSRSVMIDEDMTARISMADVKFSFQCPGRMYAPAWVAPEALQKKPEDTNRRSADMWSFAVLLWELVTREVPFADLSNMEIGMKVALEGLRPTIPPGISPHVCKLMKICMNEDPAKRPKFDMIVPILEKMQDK
UniProt Q8K1B8: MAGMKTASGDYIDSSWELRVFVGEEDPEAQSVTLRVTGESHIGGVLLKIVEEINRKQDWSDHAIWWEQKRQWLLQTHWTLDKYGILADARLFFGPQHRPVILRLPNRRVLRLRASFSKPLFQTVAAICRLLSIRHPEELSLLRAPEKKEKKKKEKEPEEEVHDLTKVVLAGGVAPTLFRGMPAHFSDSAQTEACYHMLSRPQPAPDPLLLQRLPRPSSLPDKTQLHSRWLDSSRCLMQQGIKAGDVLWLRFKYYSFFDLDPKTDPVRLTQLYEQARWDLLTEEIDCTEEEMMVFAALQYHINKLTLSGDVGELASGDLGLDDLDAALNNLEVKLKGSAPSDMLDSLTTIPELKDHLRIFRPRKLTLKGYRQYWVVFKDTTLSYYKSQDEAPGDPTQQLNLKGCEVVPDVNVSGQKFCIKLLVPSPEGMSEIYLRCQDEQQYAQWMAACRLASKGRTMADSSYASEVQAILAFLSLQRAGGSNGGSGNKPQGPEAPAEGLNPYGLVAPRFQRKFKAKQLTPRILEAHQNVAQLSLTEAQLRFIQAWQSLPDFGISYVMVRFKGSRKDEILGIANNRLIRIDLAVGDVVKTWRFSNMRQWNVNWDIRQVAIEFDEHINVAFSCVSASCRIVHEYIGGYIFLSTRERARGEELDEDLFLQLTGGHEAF
UniProt Q8BMS1, residues 37-763: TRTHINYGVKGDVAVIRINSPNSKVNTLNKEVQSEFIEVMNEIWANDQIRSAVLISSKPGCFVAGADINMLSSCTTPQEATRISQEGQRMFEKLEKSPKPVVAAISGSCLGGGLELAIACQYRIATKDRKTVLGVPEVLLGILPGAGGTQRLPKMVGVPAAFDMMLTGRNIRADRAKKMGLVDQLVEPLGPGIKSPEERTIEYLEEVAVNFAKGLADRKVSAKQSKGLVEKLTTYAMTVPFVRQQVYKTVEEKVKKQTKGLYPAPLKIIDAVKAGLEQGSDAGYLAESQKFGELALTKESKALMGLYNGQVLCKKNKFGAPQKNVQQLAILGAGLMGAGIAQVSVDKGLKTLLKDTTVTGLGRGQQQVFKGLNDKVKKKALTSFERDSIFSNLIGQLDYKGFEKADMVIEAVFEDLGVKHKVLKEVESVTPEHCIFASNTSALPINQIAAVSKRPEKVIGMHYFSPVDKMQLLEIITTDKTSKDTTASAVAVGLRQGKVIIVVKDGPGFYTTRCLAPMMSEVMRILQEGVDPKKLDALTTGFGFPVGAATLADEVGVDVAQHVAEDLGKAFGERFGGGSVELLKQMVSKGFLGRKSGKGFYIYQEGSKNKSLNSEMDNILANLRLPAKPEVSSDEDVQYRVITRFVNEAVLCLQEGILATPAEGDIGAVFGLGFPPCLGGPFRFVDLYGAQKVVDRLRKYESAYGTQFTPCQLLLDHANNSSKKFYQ

B1: Prohibitin (murine platelets) (protein, UniProt P67778 1-272)
chain: MAAKVFESIGKFGLALAVAGGVVNSALYNVDAGHRAVIFDRFRGVQDIVVGEGTHFLIPWVQKPIIFDCRSRPRNVPVITGSKDLQNVNITLRILFRPVASQLPRIYTSIGEDYDERVLPSITTEILKSVVARFDAGELITQRELVSRQVSDDLTERAATFGLILDDVSLTHLTFGKEFTEAVEAKQVAQQEAERARFVVEKAEQQKKAAIISAEGDSKAAELIANSLATAGDGLIELRKLEAAEDIAYQLSRSRNITYLPAGQSVLLQLPQ
B2: LAMP1 (murine platelets) (protein, UniProt P11438 25-406)
chain: LFEVKNNGTTCIMASFSASFLTTYETANGSQIVNISLPASAEVLKNGSSCGKENVSDPSLTITFGRGYLLTLNFTKNTTRYSVQHMYFTYNLSDTEHFPNAISKEIYTMDSTTDIKADINKAYRCVSDIRVYMKNVTVVLRDATIQAYLSSGNFSKEETHCTQDGPSPTTGPPSPSPPLVPTNPTVSKYNVTGNNGTCLLASMALQLNITYLKKDNKTVTRAFNISPNDTSSGSCGINLVTLKVENKNRALELQFGMNASSSLFFLQGVRLNMTLPDALVPTFSISNHSLKALQATVGNSYKCNTEEHIFVSKMLSLNVFSVQVQAFKVDSDRFGSVEECVQDGNNMLIPIAVGGALAGLVLIVLIAYLIGRKRSHAGYQTI

target: Parkin (human (endogenous in platelets)) (UniProt O60260); assay: co-IP; 500 ug pooled human platelet lysates (4 HC, 5 DM1, 6 DM2) with 1 ug specific antibody overnight at 4 °C, protein A/G sepharose beads, Western blot, 10% input

binding, binds:
Fermitin family homolog 3 (from UniProt Q86UX7 1-667)
Transitional endoplasmic reticulum ATPase (from UniProt P55072 1-806)
Protein disulfide-isomerase (from UniProt P07237 18-508)
Trifunctional enzyme subunit alpha, mitochondrial (from UniProt P40939 37-763)
Integrin-linked protein kinase (from UniProt Q13418 1-452)

target: T1, Parkin (murine platelets) (mouse (endogenous in platelets)) (UniProt Q9WVS6); assay: co-IP; 500 ug pooled murine platelet lysates (3 WT, 5 DM) with specific antibody overnight at 4 °C, protein A/G sepharose beads, Western blot, 10% input
T1 sequence: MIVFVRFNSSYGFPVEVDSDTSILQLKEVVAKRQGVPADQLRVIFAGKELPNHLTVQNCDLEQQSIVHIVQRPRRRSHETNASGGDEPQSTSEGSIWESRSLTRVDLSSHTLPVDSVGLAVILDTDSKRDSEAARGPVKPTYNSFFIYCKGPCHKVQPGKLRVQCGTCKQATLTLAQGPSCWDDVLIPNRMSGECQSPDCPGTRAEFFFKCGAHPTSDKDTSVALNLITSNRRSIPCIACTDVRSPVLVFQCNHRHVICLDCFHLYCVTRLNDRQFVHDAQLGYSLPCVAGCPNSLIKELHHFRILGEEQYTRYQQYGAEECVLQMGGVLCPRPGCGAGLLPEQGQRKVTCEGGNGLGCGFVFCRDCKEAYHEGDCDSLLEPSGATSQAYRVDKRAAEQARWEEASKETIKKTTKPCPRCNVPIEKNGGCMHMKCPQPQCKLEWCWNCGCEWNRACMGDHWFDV

binding, binds:
FERMT3 (murine platelets) (from UniProt Q8K1B8 1-665)
VCP/p97 (murine platelets) (from UniProt Q01853 1-806)
HADHA (murine platelets) (from UniProt Q8BMS1 37-763)
B1
B2
